For this assay, the target named is T1, TREM2 human IgG1 Fc fusion protein (human) (UniProt Q9NZC2).
T1 sequence: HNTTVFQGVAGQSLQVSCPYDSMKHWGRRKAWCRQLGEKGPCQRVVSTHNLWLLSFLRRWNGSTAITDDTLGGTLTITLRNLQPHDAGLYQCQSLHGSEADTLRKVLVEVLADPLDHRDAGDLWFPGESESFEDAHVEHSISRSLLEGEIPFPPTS
Description: SPR on human TREM2-Fc.

Results are given in words; binding and its absence hold for the method and conditions named. Some binding calls cover weakened binding; strength is not graded here. Where a sequence is shown, tags or fusion partners need not be part of it.

B1: PI37013 (antibody, human IgG1, kappa, V domains shown)
VH: EVQLLESGGGLVQPGGSLRLSCAASGFTFSNYYMAWVRQAPGKGLEWVSSLTNSGGSTYYADSVKGRFTISRDNSKNTLYLQMNSLRAEDTAVYYCTREWAGSGYFDYWGQGTLVTVSS
VL: DIQMTQSPSSLSASVGDRVTMTCKASQNVGNNLAWYQQKPGKAPKLLLYYTSNRFTGVPSRFSGSGSGTDFTLTISSVQPEDFATYYCQRIYNSPWTFGQGTKLELKR
Take B1: the binding result was “binds”.

B2: PI37014 (antibody, human IgG1, kappa, V domains shown)
VH: EVQLLESGGGLVQPGGSLRLSCAASGFTFSNYYMAWVRQAPGKGLEWVASLTNSGGSTYYADSVKGRFTLSRDNSKNTLYLQMNSLRAEDTAVYYCTREWAGSGYFDYWGQGTLVTVSS
VL: DIQMTQSPSSLSASVGDRVTITCKASQNVGNNLAWYQQKPGKAPKLLIYYTSNRFTGVPSRFSGSGSGTDFTLTISSLQPEDFATYYCQRIYNSPWTFGQGTKLEIKR
As for B2, the binding result was “binds”.

These data come from patent publication US20230287110A1.
